Values quoted from earlier work as cited in patent US6982157B1, “Drug combinations comprising (E)-7-[4-(4-fluorophenyl)-6-isopropyl-2-[methylsulfonyl)amino] pyrimidin-5-yl] (3r,5s) -3,5-dihydroxyhept-6-enoic acid and an inhibitor, inducer or substrate of p450 isoenzyme 3A4” (AstraZeneca AB, priority 1999, dated 2006).
At least one compound was matched to its structure with a doubt left.

Test system: heart transplant patients
Conditions: cited from earlier work

SMILES | cholesterol levels in heart transplant patients | incidence of haemodynamic organ rejection (placebo controlled study) | survival of transplant patients (placebo controlled study)
CC[C@H](C)C(=O)O[C@H]1C[C@H](O)C=C2C=C[C@H](C)[C@H](CC[C@@H](O)C[C@@H](O)CC(=O)O)[C@H]21 [pravastatin] | lower cholesterol levels | significantly reduced | increased survival of transplant patients by 1 year
CCC(C)(C)C(=O)O[C@H]1C[C@@H](C)C=C2C=C[C@H](C)[C@H](CC[C@@H]3C[C@@H](O)CC(=O)O3)[C@H]21 [simvastatin] | lower cholesterol levels | – | –
